According to the supplement of paper PMC4604168 (melanoma cell lines):
The other results are listed elsewhere or left out. Single values are uncertain, as repeats are few or missing.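 The apoptosis fraction was the count of cleaved-PARP antibody-stained nuclei relative to all DNA-stained nuclei, imaged in 1,536-well plates. Screening doses were set so most cells survived, and baseline and induced cleaved-PARP levels vary greatly across cell lines.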

What was measured:
Test in all cases: cleaved PARP positive nuclei fraction relative to DMSO control; melanoma cells; higher = more apoptosis
Conditions in all cases: library dose: low library concentration; 72 h
[1] = test system: A101D
[2] = test system: A2058
[3] = test system: A375
[4] = test system: C32
[5] = test system: CBRC008 (line from a melanoma biopsy)
[6] = test system: CBRC014 (line from a melanoma biopsy)
[7] = test system: CBRC016 (line from a melanoma biopsy)
[8] = test system: 501Mel
[9] = test system: CBRC017 (line from a melanoma biopsy)
[10] = test system: CBRC013 (line from a melanoma biopsy)

With `COc1cc([C@@H]2c3cc4c(cc3[C@@H](O[C@@H]3O[C@@H]5CO[C@@H](C)O[C@H]5[C@H](O)[C@H]3O)[C@H]3COC(=O)[C@H]23)OCO4)cc(OC)c1O` [etoposide] + Cn1nnc2c(C(N)=O)ncn2c1=O [temozolomide] (first compound 0.02 µM, partner dose 2 µM) the “cleaved PARP positive nuclei fraction” value [1] was 46.9%, the “cleaved PARP positive nuclei fraction” value [2] was 256% and the “cleaved PARP positive nuclei fraction” value [3] was 115%. For the same molecule, the “cleaved PARP positive nuclei fraction” value [4] was 154%, the “cleaved PARP positive nuclei fraction” value [5] was 88.6% and the “cleaved PARP positive nuclei fraction” value [6] was 101%. For the same molecule, the “cleaved PARP positive nuclei fraction” value [7] was 82%.

With `Cc1cn(-c2cc(NC(=O)c3ccc(C)c(Nc4nccc(-c5cccnc5)n4)c3)cc(C(F)(F)F)c2)cn1` [nilotinib] + N#Cc1c(O)c2c(-c3ccc(-c4ccccc4O)cc3)csc2[nH]c1=O [A769662] (first compound 0.2 µM, partner dose 2 µM) the “cleaved PARP positive nuclei fraction” value [8] was 147%, the “cleaved PARP positive nuclei fraction” value [1] was 16.3% and the “cleaved PARP positive nuclei fraction” value [2] was 26.2%. The “cleaved PARP positive nuclei fraction” value [4] was 31.3%, the “cleaved PARP positive nuclei fraction” value [5] was 56.1% and the “cleaved PARP positive nuclei fraction” value [6] was 106%. The “cleaved PARP positive nuclei fraction” value [7] was 65.7% and the “cleaved PARP positive nuclei fraction” value [9] was 102%.

With `Cc1ccc(Nc2nccc(N(C)c3ccc4c(C)n(C)nc4c3)n2)cc1S(N)(=O)=O` [Pazopanib] + COc1cc(N2CCC(N3CCN(C)CC3)CC2)ccc1Nc1ncc(Cl)c(Nc2ccccc2S(=O)(=O)C(C)C)n1 [NVP-TAE684] (first compound 0.4 µM, partner dose 0.08 µM) the “cleaved PARP positive nuclei fraction” value [8] was 72.9%, the “cleaved PARP positive nuclei fraction” value [1] was 31.5% and the “cleaved PARP positive nuclei fraction” value [2] was 98.5%. For the same molecule, the “cleaved PARP positive nuclei fraction” value [4] was 75.8%, the “cleaved PARP positive nuclei fraction” value [5] was 59.4% and the “cleaved PARP positive nuclei fraction” value [6] was 108%. For the same molecule, the “cleaved PARP positive nuclei fraction” value [7] was 15.7% and the “cleaved PARP positive nuclei fraction” value [9] was 111%.

With `O=C(/C=C/c1cccnc1)NCCCCC1CCN(C(=O)c2ccccc2)CC1` + CCc1ccc(CCOc2ccc(CC3SC(=O)NC3=O)cc2)nc1 [pioglitazone] (first compound 0.01 µM, partner dose 2 µM) the “cleaved PARP positive nuclei fraction” value [8] was 107%, the “cleaved PARP positive nuclei fraction” value [1] was 14% and the “cleaved PARP positive nuclei fraction” value [2] was 33.3%. The “cleaved PARP positive nuclei fraction” value [4] was 173%, the “cleaved PARP positive nuclei fraction” value [5] was 2480% and the “cleaved PARP positive nuclei fraction” value [6] was 112%. The “cleaved PARP positive nuclei fraction” value [7] was 405% and the “cleaved PARP positive nuclei fraction” value [9] was 764%.

`Cc1ccc(Nc2nccc(N(C)c3ccc4c(C)n(C)nc4c3)n2)cc1S(N)(=O)=O` [Pazopanib] + O=C(O)c1ccc(-c2c[nH]c3ncc(-c4ccccc4)cc23)cc1C1CCCC1 [GSK650394] (first compound 0.4 µM, partner dose 0.16 µM) was tested, and the “cleaved PARP positive nuclei fraction” value [1] was 69.4%, the “cleaved PARP positive nuclei fraction” value [2] was 74.1% and the “cleaved PARP positive nuclei fraction” value [3] was 247%. For the same molecule, the “cleaved PARP positive nuclei fraction” value [4] was 99.9%, the “cleaved PARP positive nuclei fraction” value [5] was 60.1% and the “cleaved PARP positive nuclei fraction” value [10] was 128%. The “cleaved PARP positive nuclei fraction” value [6] was 94.6%, the “cleaved PARP positive nuclei fraction” value [7] was 88.8% and the “cleaved PARP positive nuclei fraction” value [9] was 106%.

With `Cc1cn(-c2cc(NC(=O)c3ccc(C)c(Nc4nccc(-c5cccnc5)n4)c3)cc(C(F)(F)F)c2)cn1` [nilotinib] + c1cc(-c2cnn3cc(-c4ccc(OCCN5CCCCC5)cc4)cnc23)ccn1 [Dorsomorphin] (first compound 0.2 µM, partner dose 0.4 µM) the “cleaved PARP positive nuclei fraction” value [8] was 72.9%, the “cleaved PARP positive nuclei fraction” value [1] was 14.1% and the “cleaved PARP positive nuclei fraction” value [2] was 92%. For the same molecule, the “cleaved PARP positive nuclei fraction” value [4] was 116%, the “cleaved PARP positive nuclei fraction” value [5] was 53.8% and the “cleaved PARP positive nuclei fraction” value [6] was 110%. The “cleaved PARP positive nuclei fraction” value [7] was 50.1% and the “cleaved PARP positive nuclei fraction” value [9] was 88.4%.

In the case of `COc1cc([C@@H]2c3cc4c(cc3[C@@H](O[C@@H]3O[C@@H]5CO[C@@H](C)O[C@H]5[C@H](O)[C@H]3O)[C@H]3COC(=O)[C@H]23)OCO4)cc(OC)c1O` [etoposide] + Cc1cn(-c2cc(NC(=O)c3ccc(C)c(Nc4nccc(-c5cccnc5)n4)c3)cc(C(F)(F)F)c2)cn1 [nilotinib] (first compound 0.02 µM, partner dose 0.2 µM), the “cleaved PARP positive nuclei fraction” value [1] is reported as 92.9%, the “cleaved PARP positive nuclei fraction” value [2] is reported as 172% and the “cleaved PARP positive nuclei fraction” value [3] is reported as 118%. For the same molecule, the “cleaved PARP positive nuclei fraction” value [4] was 156%, the “cleaved PARP positive nuclei fraction” value [5] was 103% and the “cleaved PARP positive nuclei fraction” value [6] was 103%. The “cleaved PARP positive nuclei fraction” value [7] was 96.3% and the “cleaved PARP positive nuclei fraction” value [9] was 102%.

In the case of `O=C(Nc1cc(C(F)(F)F)cc(C(F)(F)F)c1)c1cc(Cl)ccc1O` + COc1ccc(COc2ccc(Cc3cnc(N)nc3N)cc2OC)cc1 [GW2580] (first compound 0.016 µM, partner dose 1 µM), the “cleaved PARP positive nuclei fraction” value [8] is reported as 62.3%, the “cleaved PARP positive nuclei fraction” value [1] is reported as 27% and the “cleaved PARP positive nuclei fraction” value [2] is reported as 79.8%. For the same molecule, the “cleaved PARP positive nuclei fraction” value [4] was 75%, the “cleaved PARP positive nuclei fraction” value [5] was 102% and the “cleaved PARP positive nuclei fraction” value [6] was 112%. The “cleaved PARP positive nuclei fraction” value [7] was 198% and the “cleaved PARP positive nuclei fraction” value [9] was 133%.

In the case of `CC[C@]1(O)C[C@H]2CN(CCc3c([nH]c4ccccc34)[C@@](C(=O)OC)(c3cc4c(cc3OC)N(C=O)[C@H]3[C@@](O)(C(=O)OC)[C@H](OC(C)=O)[C@]5(CC)C=CCN6CC[C@]43[C@@H]65)C2)C1` [vincristine] + Cn1cc(/C=C2\C(=O)Nc3cccnc32)c2ccccc21 [GW441756] (first compound 0.0001 µM, partner dose 0.4 µM), the “cleaved PARP positive nuclei fraction” value [8] is reported as 57.5%, the “cleaved PARP positive nuclei fraction” value [1] is reported as 8.85% and the “cleaved PARP positive nuclei fraction” value [2] is reported as 1330%. The “cleaved PARP positive nuclei fraction” value [4] was 105%, the “cleaved PARP positive nuclei fraction” value [5] was 151% and the “cleaved PARP positive nuclei fraction” value [6] was 90.3%. For the same molecule, the “cleaved PARP positive nuclei fraction” value [7] was 128% and the “cleaved PARP positive nuclei fraction” value [9] was 93.8%.

In the case of `Cc1cn(-c2cc(NC(=O)c3ccc(C)c(Nc4nccc(-c5cccnc5)n4)c3)cc(C(F)(F)F)c2)cn1` [nilotinib] + Oc1nc(-c2ccc(C(F)(F)F)cc2)nc2c1CSCC2 [XAV939] (first compound 0.2 µM, partner dose 2 µM), the “cleaved PARP positive nuclei fraction” value [8] is reported as 69.8%, the “cleaved PARP positive nuclei fraction” value [1] is reported as 39.8% and the “cleaved PARP positive nuclei fraction” value [2] is reported as 78.2%. For the same molecule, the “cleaved PARP positive nuclei fraction” value [4] was 79.1%, the “cleaved PARP positive nuclei fraction” value [5] was 118% and the “cleaved PARP positive nuclei fraction” value [6] was 79.3%. The “cleaved PARP positive nuclei fraction” value [7] was 60.3% and the “cleaved PARP positive nuclei fraction” value [9] was 163%.

`Cc1ccc(Nc2nccc(N(C)c3ccc4c(C)n(C)nc4c3)n2)cc1S(N)(=O)=O` [Pazopanib] + C=CCn1c(=O)c2cnc(Nc3ccc(N4CCN(C)CC4)cc3)nc2n1-c1cccc(C(C)(C)O)n1 [MK1775] (first compound 0.4 µM, partner dose 0.02 µM) was tested, and the “cleaved PARP positive nuclei fraction” value [1] was 218%, the “cleaved PARP positive nuclei fraction” value [2] was 38.3% and the “cleaved PARP positive nuclei fraction” value [3] was 233%. For the same molecule, the “cleaved PARP positive nuclei fraction” value [4] was 65.2%, the “cleaved PARP positive nuclei fraction” value [5] was 43.9% and the “cleaved PARP positive nuclei fraction” value [10] was 67.2%. The “cleaved PARP positive nuclei fraction” value [6] was 93.6%, the “cleaved PARP positive nuclei fraction” value [7] was 109% and the “cleaved PARP positive nuclei fraction” value [9] was 115%.
